Measured values published in the supplement of paper PMC10849652.
The list shows a part of the results.

Chains of the proteins cited; added tags and fusions are not shown. Lines headed by an entry give the natural chain unless they say otherwise; changes in a name come on top.
UniProt P22466: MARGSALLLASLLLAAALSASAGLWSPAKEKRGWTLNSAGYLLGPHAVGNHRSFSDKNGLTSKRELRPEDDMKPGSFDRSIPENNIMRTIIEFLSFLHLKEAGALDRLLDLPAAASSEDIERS
UniProt O94915: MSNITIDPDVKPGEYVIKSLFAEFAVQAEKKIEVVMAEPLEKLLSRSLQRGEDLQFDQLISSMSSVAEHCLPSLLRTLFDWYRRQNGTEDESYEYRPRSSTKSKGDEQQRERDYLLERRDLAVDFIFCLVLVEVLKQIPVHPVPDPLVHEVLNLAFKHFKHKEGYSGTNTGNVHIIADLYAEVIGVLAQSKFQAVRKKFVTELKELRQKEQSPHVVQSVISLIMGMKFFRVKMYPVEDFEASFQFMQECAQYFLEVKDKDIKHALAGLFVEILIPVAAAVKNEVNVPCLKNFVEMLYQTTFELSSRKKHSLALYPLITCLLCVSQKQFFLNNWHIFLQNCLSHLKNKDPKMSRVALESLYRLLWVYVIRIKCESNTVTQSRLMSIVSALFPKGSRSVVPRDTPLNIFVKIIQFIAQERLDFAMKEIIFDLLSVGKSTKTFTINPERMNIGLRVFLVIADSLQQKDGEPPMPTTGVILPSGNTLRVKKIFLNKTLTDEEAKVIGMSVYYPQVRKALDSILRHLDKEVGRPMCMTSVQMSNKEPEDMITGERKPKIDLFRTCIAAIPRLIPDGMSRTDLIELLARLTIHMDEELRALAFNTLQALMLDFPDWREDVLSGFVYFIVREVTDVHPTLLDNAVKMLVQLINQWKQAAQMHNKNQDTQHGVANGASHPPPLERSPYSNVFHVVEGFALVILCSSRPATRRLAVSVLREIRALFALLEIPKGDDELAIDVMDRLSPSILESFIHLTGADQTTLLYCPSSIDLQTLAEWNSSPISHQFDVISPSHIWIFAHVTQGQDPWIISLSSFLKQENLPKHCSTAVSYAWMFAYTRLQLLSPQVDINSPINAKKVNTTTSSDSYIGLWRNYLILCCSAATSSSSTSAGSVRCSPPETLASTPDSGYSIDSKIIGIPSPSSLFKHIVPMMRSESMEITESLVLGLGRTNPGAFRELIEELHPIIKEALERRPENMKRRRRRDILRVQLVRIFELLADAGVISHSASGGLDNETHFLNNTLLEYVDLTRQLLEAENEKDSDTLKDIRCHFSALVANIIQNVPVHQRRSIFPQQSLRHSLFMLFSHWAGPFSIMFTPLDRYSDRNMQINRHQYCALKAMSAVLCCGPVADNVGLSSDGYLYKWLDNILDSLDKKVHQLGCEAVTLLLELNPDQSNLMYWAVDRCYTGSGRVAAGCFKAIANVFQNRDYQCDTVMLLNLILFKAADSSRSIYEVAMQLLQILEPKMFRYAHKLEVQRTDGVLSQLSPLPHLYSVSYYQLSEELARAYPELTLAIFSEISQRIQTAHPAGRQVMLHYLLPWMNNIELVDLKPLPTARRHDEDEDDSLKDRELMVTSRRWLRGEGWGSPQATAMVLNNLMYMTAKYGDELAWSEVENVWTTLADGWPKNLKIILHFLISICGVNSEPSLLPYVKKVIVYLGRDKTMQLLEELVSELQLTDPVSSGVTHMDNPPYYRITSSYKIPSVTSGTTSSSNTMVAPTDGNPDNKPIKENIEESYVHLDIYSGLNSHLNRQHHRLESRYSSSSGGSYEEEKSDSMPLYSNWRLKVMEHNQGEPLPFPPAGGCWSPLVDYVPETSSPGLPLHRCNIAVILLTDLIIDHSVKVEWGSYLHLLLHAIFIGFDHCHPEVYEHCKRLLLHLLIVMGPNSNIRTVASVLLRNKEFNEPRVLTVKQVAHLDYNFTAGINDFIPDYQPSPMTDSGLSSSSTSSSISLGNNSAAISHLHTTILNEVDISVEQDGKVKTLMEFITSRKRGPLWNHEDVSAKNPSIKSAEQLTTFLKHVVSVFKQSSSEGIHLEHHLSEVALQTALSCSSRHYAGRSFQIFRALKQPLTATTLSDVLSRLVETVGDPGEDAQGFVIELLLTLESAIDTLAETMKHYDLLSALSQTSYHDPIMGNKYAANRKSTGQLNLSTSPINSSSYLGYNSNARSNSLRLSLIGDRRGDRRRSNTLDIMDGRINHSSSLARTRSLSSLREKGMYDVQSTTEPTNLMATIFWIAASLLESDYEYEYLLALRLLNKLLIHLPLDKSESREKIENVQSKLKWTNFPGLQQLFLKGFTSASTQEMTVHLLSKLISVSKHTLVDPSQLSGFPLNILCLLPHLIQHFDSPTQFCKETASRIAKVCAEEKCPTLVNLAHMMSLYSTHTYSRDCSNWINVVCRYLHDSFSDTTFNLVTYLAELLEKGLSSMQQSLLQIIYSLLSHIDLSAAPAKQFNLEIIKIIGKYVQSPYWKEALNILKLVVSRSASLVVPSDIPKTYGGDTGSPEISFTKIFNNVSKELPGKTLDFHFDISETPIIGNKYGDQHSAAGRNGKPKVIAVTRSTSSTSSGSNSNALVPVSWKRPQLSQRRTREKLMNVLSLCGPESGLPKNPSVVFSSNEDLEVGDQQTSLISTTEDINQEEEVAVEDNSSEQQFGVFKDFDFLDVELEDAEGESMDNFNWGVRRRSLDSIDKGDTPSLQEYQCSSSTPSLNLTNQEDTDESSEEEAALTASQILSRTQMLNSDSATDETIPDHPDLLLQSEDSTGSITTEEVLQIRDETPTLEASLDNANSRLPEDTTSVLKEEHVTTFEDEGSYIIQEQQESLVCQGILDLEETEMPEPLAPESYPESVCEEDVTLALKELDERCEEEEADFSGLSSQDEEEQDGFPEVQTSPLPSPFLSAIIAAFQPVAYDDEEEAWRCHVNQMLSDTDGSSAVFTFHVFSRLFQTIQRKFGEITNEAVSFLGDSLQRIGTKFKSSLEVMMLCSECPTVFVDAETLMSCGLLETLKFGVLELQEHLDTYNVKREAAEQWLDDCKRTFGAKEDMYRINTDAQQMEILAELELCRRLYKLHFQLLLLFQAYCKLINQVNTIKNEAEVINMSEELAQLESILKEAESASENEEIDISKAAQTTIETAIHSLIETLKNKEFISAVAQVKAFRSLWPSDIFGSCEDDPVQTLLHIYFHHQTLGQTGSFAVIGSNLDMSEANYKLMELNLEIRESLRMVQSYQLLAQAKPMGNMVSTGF
UniProt P27469: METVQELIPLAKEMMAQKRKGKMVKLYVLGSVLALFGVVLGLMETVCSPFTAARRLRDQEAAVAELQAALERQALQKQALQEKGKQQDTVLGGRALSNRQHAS
UniProt Q96QD9: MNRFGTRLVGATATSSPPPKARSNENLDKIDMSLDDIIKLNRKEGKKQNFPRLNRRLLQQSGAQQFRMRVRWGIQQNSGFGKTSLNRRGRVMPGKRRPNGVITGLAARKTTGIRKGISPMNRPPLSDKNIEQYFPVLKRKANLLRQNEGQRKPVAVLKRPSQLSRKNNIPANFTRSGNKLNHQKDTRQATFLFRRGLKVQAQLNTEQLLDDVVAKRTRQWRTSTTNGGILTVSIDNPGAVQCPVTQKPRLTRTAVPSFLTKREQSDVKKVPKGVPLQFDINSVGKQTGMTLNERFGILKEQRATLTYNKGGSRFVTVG
UniProt Q3B7J2: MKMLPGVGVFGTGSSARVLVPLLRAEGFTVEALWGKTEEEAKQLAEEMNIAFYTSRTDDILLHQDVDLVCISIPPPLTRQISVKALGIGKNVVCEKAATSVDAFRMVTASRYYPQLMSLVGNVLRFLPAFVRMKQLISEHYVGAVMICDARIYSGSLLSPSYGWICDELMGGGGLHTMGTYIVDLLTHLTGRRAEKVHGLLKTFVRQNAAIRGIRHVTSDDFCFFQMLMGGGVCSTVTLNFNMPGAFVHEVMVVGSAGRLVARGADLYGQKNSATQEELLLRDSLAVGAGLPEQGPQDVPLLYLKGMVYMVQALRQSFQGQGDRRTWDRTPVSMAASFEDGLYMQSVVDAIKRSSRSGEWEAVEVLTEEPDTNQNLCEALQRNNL
UniProt Q9NXC2: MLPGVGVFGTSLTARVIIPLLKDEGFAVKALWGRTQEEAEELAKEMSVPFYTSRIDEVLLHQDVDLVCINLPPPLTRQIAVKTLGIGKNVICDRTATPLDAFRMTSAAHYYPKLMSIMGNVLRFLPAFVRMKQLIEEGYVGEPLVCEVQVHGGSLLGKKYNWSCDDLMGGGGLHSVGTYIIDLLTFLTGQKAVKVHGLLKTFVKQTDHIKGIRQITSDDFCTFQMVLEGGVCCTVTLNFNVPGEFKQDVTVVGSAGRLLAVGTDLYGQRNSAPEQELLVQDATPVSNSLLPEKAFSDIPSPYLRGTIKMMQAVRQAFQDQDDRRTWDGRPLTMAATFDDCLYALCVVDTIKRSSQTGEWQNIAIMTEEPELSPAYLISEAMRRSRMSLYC
UniProt O43716: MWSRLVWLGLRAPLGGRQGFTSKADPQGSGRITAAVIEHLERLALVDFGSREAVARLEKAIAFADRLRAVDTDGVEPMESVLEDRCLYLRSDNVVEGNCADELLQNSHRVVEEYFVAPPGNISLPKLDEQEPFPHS
UniProt Q14697: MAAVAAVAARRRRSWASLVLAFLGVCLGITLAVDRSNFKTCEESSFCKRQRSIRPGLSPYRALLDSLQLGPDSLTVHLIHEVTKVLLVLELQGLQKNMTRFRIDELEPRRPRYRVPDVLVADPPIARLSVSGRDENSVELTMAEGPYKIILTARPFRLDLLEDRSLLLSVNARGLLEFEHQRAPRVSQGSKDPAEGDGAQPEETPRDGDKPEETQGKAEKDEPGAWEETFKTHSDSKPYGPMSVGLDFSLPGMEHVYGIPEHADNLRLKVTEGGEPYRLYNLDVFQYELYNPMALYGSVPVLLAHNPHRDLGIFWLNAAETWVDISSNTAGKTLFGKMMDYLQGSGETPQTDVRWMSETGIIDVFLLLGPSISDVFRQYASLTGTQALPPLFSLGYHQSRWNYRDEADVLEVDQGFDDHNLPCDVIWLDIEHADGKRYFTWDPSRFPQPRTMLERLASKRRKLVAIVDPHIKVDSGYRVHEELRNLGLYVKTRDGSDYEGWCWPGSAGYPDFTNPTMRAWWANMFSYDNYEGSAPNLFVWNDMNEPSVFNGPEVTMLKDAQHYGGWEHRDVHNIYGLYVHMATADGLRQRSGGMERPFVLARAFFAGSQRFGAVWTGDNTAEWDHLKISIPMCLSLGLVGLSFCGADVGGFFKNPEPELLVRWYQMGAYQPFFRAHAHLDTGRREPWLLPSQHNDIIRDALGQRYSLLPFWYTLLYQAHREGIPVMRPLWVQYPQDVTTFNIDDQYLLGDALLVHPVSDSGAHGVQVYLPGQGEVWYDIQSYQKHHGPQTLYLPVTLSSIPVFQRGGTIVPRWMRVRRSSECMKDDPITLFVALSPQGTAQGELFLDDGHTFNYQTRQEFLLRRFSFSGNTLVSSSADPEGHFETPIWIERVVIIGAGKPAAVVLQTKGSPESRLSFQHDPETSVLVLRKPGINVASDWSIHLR
UniProt Q969S9: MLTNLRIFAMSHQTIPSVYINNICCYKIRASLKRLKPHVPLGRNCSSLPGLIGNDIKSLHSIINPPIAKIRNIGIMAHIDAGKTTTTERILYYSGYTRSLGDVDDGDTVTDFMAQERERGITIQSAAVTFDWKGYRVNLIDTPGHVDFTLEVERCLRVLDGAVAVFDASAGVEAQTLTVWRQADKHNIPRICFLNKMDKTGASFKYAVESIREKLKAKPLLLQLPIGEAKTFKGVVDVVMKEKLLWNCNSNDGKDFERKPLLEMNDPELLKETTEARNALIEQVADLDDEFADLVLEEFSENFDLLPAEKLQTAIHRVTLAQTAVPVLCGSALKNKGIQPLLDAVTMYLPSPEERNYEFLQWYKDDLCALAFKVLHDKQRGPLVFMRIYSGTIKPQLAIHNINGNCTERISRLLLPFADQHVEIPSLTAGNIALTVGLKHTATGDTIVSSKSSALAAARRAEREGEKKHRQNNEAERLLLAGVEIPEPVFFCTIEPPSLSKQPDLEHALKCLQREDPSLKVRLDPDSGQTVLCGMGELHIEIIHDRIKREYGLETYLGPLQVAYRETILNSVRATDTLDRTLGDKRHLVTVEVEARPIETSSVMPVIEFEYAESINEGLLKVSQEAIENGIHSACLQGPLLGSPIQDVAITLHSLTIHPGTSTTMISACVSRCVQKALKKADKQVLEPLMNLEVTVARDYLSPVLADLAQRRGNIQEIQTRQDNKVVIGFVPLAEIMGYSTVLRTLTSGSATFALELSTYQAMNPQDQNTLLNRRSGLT

Assays:
Assay in all cases: log2 fold change, soluble protein after heating vs DMSO (PISA); higher = thermal stabilisation; K562 cells, 10 uM, 30 min; active = over 0.2 and 3.5 SD of the protein, either way, in both replicates (recomputed)
[1] = compound: NCC(=O)Nc1ccc(-n2nc(C(F)(F)F)cc2-c2ccc3c(ccc4ccccc43)c2)cc1
In short: (§1)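 K562 cells at 2×10^6 cells/mL were treated for 30 min with 10 μM compound, and aliquots were heated for 3 min over 48°C-58°C before pooling. Extraction used PBS with 0.5% NP-40 at 4°C, and soluble protein was the supernatant after 21,000xg for 90 min, measured by TMTpro 16plex LC-MS/MS with channel sums equalised. Thermal stability values, relative to control samples and from duplicates, are log2 fold changes.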

[2] = compound: NC(=O)c1cnc(N[C@@H]2CCCC[C@@H]2N)nc1Nc1cccc(-n2nccn2)c1
In short: as §1

[3] = compound: O=C1NC(=O)C(c2cnc3ccccn23)=C1c1cn2c3c(cc(F)cc13)CN(C(=O)N1CCCCC1)CC2
In short: as §1

[4] = compound: NC1(c2ccc(-c3nc4ccn5c(=O)[nH]nc5c4cc3-c3ccccc3)cc2)CCC1
In short: as §1

[5] = compound: O=C(O)c1ccc2c(c1)nc(Nc1cccc(Cl)c1)c1ccncc12 [silmitasertib]
In short: as §1

[6] = compound: O=C(CCCCCCNC(=O)c1cnc(N(c2ccccc2)c2ccccc2Cl)nc1)NO [citarinostat]
In short: as §1

[7] = compound: c1cc(OCCN2CCCCC2)cc(-c2n[nH]c3ccc(-c4nnc[nH]4)cc23)c1
In short: as §1

[8] = compound: O=C(CCCCCCC(=O)Nc1ccccc1)NO [vorinostat]
In short: as §1

[9] = compound: c1cn2cc(-c3ccc4cn[nH]c4c3)nc(Nc3ccc(N4CCOCC4)cc3)c2n1 [entospletinib]
In short: as §1

Measured: log2 fold change

GAL (UniProt P22466)
inactive: [1] -0.126

FRYL isoform 2 (UniProt O94915)
inactive: [2] 0.068 | [1] -0.102 | [3] -0.149

G0S2 (UniProt P27469)
inactive: [4] 0.102 | [5] -0.141

GBE1 (UniProt Q04446)
inactive: [2] -0.11 | [4] -0.214 | [1] -0.07 | [6] 0.09 | [5] 0.031 | [3] -0.049 | [7] -0.057

FYTTD1 (UniProt Q96QD9)
inactive: [2] -0.372 | [8] -0.024 | [6] -0.188 | [3] -0.005 | [7] -0.16 | [9] -0.069

GFOD2 (UniProt Q3B7J2)
inactive: [3] -0.283

GFOD1 (UniProt Q9NXC2)
inactive: [8] 0 | [3] -0.43

GALNT7 (UniProt H0YAH3)
inactive: [1] 0.01 | [6] -0.057 | [3] 0.015 | [7] 0.004 | [9] -0.043

GATC (UniProt O43716)
inactive: [2] 0.058 | [4] -0.069 | [1] 0.152 | [8] -0.086 | [6] -0.089 | [5] 0.043 | [3] -0.184 | [7] 0.122 | [9] 0.473

GANAB (UniProt Q14697)
inactive: [4] 0.398 | [6] -1.28 | [5] -0.211 | [7] -0.028 | [9] 0.345

GFM2 (UniProt Q969S9)
inactive: [4] 0.235 | [6] -0.061 | [5] 0.02 | [7] -0.158 | [9] 0.111
